Assay results: the supplement of paper PMC10849652
The list shows a part of the results.

By UniProt entry, the sequences of proteins in these tests, tags left out. Where a name states a change or a piece, a line headed by the entry shows the natural chain unless it says otherwise.
UniProt O00716: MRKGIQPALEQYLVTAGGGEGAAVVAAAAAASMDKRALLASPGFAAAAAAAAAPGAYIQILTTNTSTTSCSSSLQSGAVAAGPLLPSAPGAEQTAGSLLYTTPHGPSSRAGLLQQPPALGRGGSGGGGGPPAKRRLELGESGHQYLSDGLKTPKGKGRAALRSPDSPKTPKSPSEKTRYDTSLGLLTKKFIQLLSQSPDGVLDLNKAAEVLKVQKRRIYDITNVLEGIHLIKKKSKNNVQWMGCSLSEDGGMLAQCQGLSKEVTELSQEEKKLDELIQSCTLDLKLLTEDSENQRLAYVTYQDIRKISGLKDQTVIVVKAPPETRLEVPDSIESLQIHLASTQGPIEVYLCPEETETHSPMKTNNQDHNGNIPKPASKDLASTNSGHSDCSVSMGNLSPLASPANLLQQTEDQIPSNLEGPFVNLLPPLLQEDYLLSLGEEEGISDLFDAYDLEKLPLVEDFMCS
UniProt Q6UX65: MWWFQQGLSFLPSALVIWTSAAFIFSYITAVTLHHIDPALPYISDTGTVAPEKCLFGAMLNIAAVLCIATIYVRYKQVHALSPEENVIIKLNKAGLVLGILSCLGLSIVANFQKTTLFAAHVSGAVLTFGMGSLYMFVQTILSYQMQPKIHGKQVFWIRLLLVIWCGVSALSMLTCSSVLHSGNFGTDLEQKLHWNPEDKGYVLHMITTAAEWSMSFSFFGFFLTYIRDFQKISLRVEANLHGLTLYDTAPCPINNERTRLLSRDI
UniProt Q9H410: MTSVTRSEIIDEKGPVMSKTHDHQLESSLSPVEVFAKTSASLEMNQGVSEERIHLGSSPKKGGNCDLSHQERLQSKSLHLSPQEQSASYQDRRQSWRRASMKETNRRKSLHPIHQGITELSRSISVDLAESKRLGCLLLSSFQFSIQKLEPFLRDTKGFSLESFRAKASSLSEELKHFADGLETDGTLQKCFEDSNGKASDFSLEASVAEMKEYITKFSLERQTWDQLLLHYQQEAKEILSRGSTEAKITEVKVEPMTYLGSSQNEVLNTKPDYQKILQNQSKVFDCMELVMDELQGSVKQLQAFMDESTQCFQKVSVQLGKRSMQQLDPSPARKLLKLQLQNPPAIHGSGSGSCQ
UniProt Q9H1X3: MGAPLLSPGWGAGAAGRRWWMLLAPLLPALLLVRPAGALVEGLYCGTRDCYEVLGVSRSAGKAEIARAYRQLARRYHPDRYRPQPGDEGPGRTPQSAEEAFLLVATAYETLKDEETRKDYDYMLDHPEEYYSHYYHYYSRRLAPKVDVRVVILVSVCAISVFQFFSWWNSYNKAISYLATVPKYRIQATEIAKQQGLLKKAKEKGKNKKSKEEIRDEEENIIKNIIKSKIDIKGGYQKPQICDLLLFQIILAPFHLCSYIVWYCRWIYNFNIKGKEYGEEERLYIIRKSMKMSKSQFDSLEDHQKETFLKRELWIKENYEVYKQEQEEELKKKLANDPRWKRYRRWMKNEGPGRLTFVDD
UniProt Q96FN9: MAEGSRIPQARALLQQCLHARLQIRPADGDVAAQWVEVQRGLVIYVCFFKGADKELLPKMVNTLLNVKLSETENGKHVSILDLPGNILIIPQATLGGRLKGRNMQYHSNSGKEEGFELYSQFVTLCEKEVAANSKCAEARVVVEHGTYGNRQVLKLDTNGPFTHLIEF
UniProt P63172, whole entry, looked up: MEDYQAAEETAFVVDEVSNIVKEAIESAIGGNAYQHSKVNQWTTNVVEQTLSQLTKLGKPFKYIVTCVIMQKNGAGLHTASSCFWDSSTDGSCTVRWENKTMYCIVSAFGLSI
UniProt Q8NBA8: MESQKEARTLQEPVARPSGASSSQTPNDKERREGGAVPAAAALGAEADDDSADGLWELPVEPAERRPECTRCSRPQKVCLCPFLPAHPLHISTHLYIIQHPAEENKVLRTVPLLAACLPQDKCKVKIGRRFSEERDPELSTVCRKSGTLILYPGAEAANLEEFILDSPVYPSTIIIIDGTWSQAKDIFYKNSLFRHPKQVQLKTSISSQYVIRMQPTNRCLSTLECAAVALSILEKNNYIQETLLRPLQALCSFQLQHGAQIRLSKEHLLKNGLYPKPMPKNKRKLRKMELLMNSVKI
UniProt Q99956: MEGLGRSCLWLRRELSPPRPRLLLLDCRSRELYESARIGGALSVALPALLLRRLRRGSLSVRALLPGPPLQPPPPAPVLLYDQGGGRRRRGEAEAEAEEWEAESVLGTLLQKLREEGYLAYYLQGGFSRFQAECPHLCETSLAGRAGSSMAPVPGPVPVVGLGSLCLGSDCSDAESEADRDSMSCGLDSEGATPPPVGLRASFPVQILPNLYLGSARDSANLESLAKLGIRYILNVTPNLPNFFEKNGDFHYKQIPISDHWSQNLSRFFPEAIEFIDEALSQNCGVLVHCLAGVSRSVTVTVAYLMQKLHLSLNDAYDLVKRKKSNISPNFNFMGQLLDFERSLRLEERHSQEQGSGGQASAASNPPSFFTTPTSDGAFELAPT
UniProt Q96BY6: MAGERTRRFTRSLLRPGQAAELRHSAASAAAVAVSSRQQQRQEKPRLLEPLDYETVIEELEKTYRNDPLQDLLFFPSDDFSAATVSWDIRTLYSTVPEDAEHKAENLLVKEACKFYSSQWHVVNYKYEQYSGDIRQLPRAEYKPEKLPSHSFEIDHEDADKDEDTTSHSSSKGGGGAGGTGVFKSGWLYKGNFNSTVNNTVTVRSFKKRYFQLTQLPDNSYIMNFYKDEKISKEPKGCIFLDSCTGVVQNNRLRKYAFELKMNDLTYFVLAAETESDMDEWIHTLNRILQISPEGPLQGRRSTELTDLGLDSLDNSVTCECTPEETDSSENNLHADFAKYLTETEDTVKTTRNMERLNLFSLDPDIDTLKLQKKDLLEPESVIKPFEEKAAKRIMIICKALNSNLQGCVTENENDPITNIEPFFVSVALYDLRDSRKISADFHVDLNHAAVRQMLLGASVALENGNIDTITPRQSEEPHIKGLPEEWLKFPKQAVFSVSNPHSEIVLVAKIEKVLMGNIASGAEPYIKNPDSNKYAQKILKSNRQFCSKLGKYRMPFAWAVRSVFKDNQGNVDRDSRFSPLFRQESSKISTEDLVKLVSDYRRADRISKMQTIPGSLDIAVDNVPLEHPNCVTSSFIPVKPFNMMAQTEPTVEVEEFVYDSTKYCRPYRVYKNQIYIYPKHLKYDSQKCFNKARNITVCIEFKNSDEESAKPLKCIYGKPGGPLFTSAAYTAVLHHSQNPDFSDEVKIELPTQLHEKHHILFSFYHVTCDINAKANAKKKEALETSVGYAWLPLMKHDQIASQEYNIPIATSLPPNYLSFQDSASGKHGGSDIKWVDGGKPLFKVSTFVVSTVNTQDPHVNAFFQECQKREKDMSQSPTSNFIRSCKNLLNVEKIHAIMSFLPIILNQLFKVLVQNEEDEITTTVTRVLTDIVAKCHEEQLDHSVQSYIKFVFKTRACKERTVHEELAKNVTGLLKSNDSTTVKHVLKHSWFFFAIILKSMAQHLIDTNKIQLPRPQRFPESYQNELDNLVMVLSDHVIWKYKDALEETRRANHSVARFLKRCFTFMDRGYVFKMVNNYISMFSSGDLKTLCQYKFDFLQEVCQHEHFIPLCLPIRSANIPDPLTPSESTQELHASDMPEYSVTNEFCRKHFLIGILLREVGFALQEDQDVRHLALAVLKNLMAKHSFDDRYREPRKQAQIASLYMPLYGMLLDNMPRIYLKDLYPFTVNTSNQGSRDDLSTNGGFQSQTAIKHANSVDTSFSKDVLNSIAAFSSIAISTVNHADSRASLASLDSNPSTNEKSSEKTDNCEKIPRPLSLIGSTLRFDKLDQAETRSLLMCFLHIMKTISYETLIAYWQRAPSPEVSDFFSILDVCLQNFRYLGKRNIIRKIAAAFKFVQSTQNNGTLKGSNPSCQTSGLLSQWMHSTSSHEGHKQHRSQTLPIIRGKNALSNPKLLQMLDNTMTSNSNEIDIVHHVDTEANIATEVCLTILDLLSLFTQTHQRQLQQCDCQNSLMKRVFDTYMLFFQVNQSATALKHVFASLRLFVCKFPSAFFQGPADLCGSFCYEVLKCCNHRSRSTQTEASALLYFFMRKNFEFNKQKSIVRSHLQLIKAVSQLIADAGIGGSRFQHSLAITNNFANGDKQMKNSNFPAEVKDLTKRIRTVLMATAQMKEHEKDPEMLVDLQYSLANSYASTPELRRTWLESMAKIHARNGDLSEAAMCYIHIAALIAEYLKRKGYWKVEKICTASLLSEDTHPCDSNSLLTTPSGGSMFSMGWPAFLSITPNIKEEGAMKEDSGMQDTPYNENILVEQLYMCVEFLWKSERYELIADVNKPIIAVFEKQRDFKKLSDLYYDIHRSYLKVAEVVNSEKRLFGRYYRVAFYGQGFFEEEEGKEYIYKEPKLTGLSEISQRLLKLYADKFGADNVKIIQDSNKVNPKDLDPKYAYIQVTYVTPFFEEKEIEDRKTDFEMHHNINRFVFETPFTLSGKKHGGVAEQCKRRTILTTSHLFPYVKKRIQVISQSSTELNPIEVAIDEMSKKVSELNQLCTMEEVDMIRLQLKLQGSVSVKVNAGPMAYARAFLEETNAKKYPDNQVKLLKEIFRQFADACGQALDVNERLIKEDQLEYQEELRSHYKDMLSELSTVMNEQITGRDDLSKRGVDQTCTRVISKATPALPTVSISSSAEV
UniProt Q96FX2: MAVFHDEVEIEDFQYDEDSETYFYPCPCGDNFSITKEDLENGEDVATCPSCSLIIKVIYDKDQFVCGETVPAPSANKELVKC
UniProt Q99704: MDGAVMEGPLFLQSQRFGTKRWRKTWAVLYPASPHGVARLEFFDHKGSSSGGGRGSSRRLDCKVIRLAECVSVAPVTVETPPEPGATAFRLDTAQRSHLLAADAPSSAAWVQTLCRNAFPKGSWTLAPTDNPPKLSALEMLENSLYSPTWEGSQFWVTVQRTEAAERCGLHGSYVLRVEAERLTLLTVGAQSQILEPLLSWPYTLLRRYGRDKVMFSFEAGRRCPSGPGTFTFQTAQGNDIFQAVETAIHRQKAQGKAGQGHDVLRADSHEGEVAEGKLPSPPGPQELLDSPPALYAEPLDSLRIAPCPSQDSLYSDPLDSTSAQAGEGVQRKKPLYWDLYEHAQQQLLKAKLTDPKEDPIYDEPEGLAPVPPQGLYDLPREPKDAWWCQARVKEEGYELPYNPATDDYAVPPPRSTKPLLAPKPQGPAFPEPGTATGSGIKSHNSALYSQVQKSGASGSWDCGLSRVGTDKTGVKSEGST
UniProt Q6P3W2: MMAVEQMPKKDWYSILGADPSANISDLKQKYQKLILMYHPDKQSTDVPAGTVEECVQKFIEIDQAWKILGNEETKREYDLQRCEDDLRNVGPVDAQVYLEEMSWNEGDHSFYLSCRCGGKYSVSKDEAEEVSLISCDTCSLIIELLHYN
UniProt Q96DC8: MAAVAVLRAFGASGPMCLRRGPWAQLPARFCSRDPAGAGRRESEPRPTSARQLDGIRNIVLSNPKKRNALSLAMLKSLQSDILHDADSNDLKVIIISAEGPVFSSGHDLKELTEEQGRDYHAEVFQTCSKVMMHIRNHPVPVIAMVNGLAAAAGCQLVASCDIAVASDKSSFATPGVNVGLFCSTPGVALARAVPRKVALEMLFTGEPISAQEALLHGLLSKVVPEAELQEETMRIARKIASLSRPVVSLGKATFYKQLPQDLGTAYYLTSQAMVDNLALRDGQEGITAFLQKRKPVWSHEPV
UniProt Q4LDG9: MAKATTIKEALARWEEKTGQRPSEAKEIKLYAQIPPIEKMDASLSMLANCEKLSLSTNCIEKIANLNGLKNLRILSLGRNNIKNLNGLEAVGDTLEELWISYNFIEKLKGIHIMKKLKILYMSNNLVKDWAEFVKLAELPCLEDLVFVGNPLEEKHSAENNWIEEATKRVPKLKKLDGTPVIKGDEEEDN
UniProt Q6NUT2: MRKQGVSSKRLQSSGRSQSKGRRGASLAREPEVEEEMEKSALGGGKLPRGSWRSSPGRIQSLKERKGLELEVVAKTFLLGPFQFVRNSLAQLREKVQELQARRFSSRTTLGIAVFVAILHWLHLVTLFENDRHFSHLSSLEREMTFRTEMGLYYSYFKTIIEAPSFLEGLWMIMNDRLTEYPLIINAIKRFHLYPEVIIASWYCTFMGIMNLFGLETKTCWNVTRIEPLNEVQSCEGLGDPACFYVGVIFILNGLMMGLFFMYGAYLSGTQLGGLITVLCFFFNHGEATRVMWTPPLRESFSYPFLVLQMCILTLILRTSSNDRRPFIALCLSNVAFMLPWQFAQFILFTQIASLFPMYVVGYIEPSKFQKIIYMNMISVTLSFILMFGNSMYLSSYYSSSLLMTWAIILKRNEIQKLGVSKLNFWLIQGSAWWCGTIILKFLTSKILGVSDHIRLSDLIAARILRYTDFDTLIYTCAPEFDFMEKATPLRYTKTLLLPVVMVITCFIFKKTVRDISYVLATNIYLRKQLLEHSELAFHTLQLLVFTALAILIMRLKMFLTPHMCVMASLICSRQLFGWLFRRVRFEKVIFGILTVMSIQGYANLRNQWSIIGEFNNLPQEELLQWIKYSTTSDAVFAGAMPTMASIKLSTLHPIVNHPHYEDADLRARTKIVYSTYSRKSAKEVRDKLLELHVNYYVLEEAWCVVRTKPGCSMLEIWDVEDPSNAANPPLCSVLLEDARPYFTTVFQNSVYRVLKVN

Each target was assayed with CC(C)N(C[C@H]1O[C@@H](n2cnc3c(N)ncnc32)[C@H](O)[C@@H]1O)[C@H]1C[C@@H](CCc2nc3cc(C(C)(C)C)ccc3[nH]2)C1 [pinometostat] (assay: log2 fold change, soluble protein after heating vs DMSO (PISA); higher = thermal stabilisation; K562 cells, 10 uM, 30 min; active = over 0.2 and 3.5 SD of the protein, either way, in both replicates (recomputed)).
In short: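 K562 cells at 2×10^6 cells/mL were treated with 10 μM compound for 30 min. Aliquots were heated for 3 min across 48°C-58°C, pooled, and extracted in PBS with 0.5% NP-40 at 4°C; soluble protein was the supernatant after 21,000xg for 90 min. Soluble protein was quantified by TMTpro 16plex LC-MS/MS with channel sums equalised, and reported as log2 fold change in thermal stability against DMSO controls, with values from duplicates.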

log2 fold change, inactive:
DOP1B (UniProt Q9Y3R5) -0.091, E2F3 (UniProt O00716) 0.021, DYNC1I2 isoform 2 (UniProt Q13409) 0.023, ECD isoform 3 (UniProt O95905) 0.105, DRAM2 (UniProt Q6UX65) 0.144, E4F1 (UniProt Q66K89) -0.208, EAPP (UniProt Q56P03) -0.037, DNTTIP2 (UniProt Q5QJE6) 0.266, DOCK8 (UniProt Q8NF50) 0.059, DOLPP1 (UniProt Q86YN1) -0.056, DNPEP (UniProt B9ZVU2) -0.066, DSN1 (UniProt Q9H410) -0.037, DNAJC25 (UniProt Q9H1X3) 0, DTD2 (UniProt Q96FN9) 0.048, DNAJC16 (UniProt Q9Y2G8) 0.102, DNM2 isoform 4 (UniProt P50570) -0.063, DYRK1A isoform 2 (UniProt Q13627) 0.055, DYNLT1 (UniProt P63172) -0.023, DNM1L isoform 2 (UniProt O00429) -0.019, DTWD2 (UniProt Q8NBA8) 0.082, DUSP9 (UniProt Q99956) -0.048, DOCK10 (UniProt Q96BY6) 0.061, DONSON (UniProt Q9NYP3) -0.065, DPH3 (UniProt Q96FX2) -0.051, DOK1 (UniProt Q99704) 0.151, DNAJC24 (UniProt Q6P3W2) -0.019, DPYSL2 (UniProt Q16555) 0.009, DNAJC30 (UniProt Q96LL9) 0.031, ECHDC3 (UniProt Q96DC8) -0.037, DNAL1 (UniProt Q4LDG9) 0.093, DYM (UniProt Q7RTS9) 0.02, DNPEP (UniProt C9JBE1) 0.086, DPY19L2 (UniProt Q6NUT2) 0.096, DPCD (UniProt Q9BVM2) 0.14
